No constants are given. Whether binding was seen depends on the method and setting. Some entries that bind do so weakly or less than the wild type. Where no end group is shown, it is not given here.
Target: µ opioid receptor (bovine caudate nucleus synaptic membrane fraction) (bovine) (UniProt P79350)
Experiment: displacement of [3H]DAMGO, bovine caudate synaptic membranes

Sequences of proteins named here, by UniProt entry; tags and fusion partners are left off.
UniProt P79350: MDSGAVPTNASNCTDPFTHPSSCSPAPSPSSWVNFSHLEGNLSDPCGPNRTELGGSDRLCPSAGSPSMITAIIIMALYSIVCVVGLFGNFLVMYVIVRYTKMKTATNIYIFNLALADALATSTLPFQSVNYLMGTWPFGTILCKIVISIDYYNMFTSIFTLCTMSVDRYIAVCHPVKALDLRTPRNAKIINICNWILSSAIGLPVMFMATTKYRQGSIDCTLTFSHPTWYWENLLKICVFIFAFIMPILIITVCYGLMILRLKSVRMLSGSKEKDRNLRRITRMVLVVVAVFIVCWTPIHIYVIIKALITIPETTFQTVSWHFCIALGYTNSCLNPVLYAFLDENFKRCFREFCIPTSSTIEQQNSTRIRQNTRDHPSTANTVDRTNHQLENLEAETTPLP

B1: Leu-Enkephalin-(Lys-Glu)3-OH (peptide)
peptide: YGGFLKEKEKE-OH
binding: binds

— patent US20080227954A1 (ZEALAND PHARMA A S, published 2008)
